Measurements from PMC9045721.
Results are given in words; binding and its absence hold for the method and conditions named. Binding seen in cells or lysates may run through a third protein. Sequences can lack the tags named with a protein.

Sequences of proteins named here, by UniProt entry; tags and fusion partners are left off. Residues count along the entry.
UniProt Q9HC16, residues 197-384: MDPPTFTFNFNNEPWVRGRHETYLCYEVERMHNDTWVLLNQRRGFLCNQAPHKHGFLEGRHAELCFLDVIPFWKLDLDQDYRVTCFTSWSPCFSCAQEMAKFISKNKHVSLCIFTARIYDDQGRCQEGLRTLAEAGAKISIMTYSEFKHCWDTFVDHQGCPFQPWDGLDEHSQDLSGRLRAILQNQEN

Molecular target: T1, BORF2-3xFLAG (Epstein-Barr virus (EBV)) (UniProt P03190)
T1 sequence: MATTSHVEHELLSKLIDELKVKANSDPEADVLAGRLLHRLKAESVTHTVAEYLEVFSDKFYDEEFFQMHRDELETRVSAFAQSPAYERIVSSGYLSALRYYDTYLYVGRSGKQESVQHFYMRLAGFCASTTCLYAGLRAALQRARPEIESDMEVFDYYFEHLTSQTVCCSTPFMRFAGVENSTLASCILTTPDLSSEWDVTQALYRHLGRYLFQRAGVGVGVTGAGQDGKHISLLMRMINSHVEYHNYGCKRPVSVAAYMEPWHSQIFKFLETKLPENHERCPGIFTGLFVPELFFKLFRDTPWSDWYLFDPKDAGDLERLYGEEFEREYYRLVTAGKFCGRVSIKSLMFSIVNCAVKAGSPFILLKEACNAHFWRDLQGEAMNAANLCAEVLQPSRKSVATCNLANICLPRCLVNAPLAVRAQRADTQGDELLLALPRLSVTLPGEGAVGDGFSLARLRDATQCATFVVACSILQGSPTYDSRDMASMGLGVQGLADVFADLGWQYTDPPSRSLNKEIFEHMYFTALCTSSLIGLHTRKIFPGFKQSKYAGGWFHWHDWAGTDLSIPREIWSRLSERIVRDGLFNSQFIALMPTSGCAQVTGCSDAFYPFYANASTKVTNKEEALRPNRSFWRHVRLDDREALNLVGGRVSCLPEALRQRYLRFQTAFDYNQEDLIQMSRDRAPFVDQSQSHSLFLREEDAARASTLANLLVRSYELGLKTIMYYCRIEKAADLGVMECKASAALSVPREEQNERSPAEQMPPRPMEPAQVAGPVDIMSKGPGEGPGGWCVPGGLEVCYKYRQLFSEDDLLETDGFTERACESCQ
Test: co-IP; 293T co-transfected with BORF2-3xFLAG and A3-eGFP constructs (100 ng each); lysis in 50 mM tris-HCl (pH 7.5), 150 mM NaCl, 10% glycerol, 0.5% Tergitol, RNase A; anti-FLAG magnetic beads overnight at 4°C; FLAG peptide elution; anti-GFP blot

## A3Gctd(197-384)-eGFP (from UniProt Q9HC16-1 197-384) (domain or fragment)
  binding: no binding
